Consider 1 substance from article PMC4742714.

Protein sequences, listed by entry. Tags and fused reporters are not part of them.
UniProt P78347: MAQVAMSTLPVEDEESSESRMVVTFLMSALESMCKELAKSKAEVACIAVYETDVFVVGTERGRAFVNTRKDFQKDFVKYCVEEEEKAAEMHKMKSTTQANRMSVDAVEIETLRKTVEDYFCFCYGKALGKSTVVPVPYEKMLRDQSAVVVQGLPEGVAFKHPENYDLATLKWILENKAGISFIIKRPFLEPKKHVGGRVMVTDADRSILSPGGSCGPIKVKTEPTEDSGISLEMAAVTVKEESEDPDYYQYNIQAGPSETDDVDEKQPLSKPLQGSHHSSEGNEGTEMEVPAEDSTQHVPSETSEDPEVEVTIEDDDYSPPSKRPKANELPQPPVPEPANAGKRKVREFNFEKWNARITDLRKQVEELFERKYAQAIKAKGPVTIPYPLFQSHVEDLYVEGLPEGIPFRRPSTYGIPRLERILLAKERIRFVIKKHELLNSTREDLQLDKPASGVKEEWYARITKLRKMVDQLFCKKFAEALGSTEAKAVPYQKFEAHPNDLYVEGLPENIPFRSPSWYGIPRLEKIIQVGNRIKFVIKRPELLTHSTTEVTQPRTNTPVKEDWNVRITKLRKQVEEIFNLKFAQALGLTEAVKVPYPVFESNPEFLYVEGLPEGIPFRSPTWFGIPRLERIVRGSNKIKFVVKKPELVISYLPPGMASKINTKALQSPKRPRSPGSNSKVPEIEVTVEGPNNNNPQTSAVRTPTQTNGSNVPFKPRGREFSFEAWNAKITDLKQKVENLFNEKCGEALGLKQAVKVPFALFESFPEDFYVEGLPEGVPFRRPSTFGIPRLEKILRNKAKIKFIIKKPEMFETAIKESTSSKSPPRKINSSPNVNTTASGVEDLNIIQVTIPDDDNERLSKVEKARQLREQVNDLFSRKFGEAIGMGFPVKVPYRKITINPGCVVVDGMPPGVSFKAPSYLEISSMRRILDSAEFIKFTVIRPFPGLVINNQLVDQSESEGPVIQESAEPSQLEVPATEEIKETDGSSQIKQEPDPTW
UniProt P04489: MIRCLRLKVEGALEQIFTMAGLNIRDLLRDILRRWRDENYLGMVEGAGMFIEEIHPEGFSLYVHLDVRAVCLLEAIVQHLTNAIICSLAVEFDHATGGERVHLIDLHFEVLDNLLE

The test concerns the target General transcription factor II-I (TFII-I), FLAG-tagged (UniProt P78347). As to the kind of experiment: co-IP; HeLa cells transfected with pCMV-3Tag-TFII-I, infected the next day with Ad-CMV expressing HA-E4-ORF3; extracts at 12 h postinfection; TFII-I immunoprecipitated with anti-FLAG antibody (isotype-matched IgG as control); E4-ORF3 detected by anti-HA Western blot.

Results are given in words; binding and its absence hold for the method and conditions named. In cells and extracts the contact can be indirect. Some results given as binding are weak or reduced against the parent protein; the word gives no strength.

For the substance “Adenovirus type 5 early region 4 open reading frame 3 (E4-ORF3) protein, HA-tagged, wild type (from UniProt P04489 1-116)”, the binding result is “binds”.
